Consider four sequences from PMC12370185.

Some of the results follow.

Test systems include KLF4 + histone octamer; OCT4 + histone octamer; SOX2 + histone octamer.
Assay in all cases: EMSA with sequencing
What all share (conditions): 10 mM Tris-Cl pH 7.5, 50 mM NaCl, 1 mM DTT, 0.25 mg/ml BSA, 2 mM MgCl2, 0.025% Nonidet P-40, 5% glycerol; 28 nM nucleosome library; 10 min on ice then 30 min …; high values mean tight binding; double strand, one strand shown

In assay [1] the test system is c-MYC + MAX + histone octamer.

Regarding “GATGGACCCTATACGCGGCTACACAGGATGTTACTATTACTTAACCTTGGGCAGAGGGAGAACTGCACACCCACACCCCTGTTAAGTTCCTTTTAGCAAACACCAGCCCCCACTGCCTGAAACTCATCTTGGTCATGCCCAGACATGATGCTACAGACCTTCAGAGAAAGAGGAAGCCAAATATTTAGCTCTCTCTGCGGTCCCTGGCTCTGCCAGTCGGATAGTGTTCC”, the binding signal (log2 relative supershift) with KLF4 + histone octamer came out at 1.95; with OCT4 + histone octamer, 0.277; in the assay on SOX2 + histone octamer it was 0.447; in assay [1], 0.332.

Take “GATGGACCCTATACGCGGCGTGAAAATAAAGACGTGATTTTTTTCCCTATCCAAATATATGATCCCTGAATTCTATCCATGAACCCAAGGTTTAGAATGTCTGTTGTGTGATGTGCTCATACCTTAAAAAGGAGTGTGGGGGAGTGGGCGAATGTGCACGTGTGTATGTTCATGCATGTGCATGTGAGTAGAGGGGTGGGGAGAGAGGGATGCCAGTCGGATAGTGTTCC”: the binding signal (log2 relative supershift) in the assay with KLF4 + histone octamer was 1.16; in the assay on OCT4 + histone octamer it was 0.119; in the assay on SOX2 + histone octamer, 1.09; in assay [1], 0.332.

Take “GATGGACCCTATACGCGGCGACAGCACAAAAGGAACTATCCCAGGTCACACGAGAAACCCGGATGTCATCATAGCACTGGTCATTTTTCACCGCTTGCCCAAATACATGCCGAAACTTGCTCTGTCGTACCACTCGCCTCATCGTGTCTGCAAAGGAAGAGTGAGAATTATGTTAGAATTATGCACCAAACTGAAAGCTTTACTTTTACATGCCAGTCGGATAGTGTTCC”: the binding signal (log2 relative supershift) in the assay with KLF4 + histone octamer was 0.825; with OCT4 + histone octamer, 0.826; in the assay with SOX2 + histone octamer, 1.44; in assay [1] it was 0.357.

Regarding “GATGGACCCTATACGCGGCTATGTCCTTGGGATTCAGGGCAATTAATGTTCTCTTTCTCCTGTTCCCTATTTAGCACACAGCAAGGCTGGCCCGTTTGAGCATCCTCATGTGATCCTTGATTGCATTACAAAATATGATCAAAAGAATCTACCTCAATGGGCATGATTGTGCTGCTTGCTAAACTCAATGGCAATTTATTTAAATATGATTGCCAGTCGGATAGTGTTCC”, the binding signal (log2 relative supershift) in the assay with KLF4 + histone octamer turned out to be 0.58; in the assay with OCT4 + histone octamer it was 1.93; with SOX2 + histone octamer, 0.88; in assay [1], 0.485.
